From US12268227B2, “Production of flavor concentrates by osmosis” (SYMRISE AG, priority 2017, dated 2025)

Assay: Sensory recovery coefficient (SWF) and W parameter
Details: not given
For `CC=O` [acetaldehyde], the “W = log (SWF)” value was −1.98.
In the case of `CCCO` [propanol], the “W = log (SWF)” value is reported as −3.24.

Same assay, conditions: log10 of SWF
In the case of `CC(=O)C(C)=O` [2,3-butanedione], the “W = log (SWF)” value is reported as −2.24.
For `CCC(=O)C(C)=O` [2,3-pentanedione], the “W = log (SWF)” value was −0.54.
In the case of `CCC(C)C=O` (stereo not shown) [2-methylbutyraldehyde], the “W = log (SWF)” value is reported as 1.45.
For `CC(=O)O` [acetic acid], the “W = log (SWF)” value was −5.48.
With `CCOC(C)=O` [ethyl acetate] the “W = log (SWF)” value was −2.76.
In the case of `CCCC(=O)OCC` [ethyl butanoate], the “W = log (SWF)” value is reported as 1.49.
For `CCCCCC(=O)OCC` [ethyl hexanoate], the “W = log (SWF)” value was 1.71.
For `CCCCC1CCC(=O)O1` (stereo not shown) [gamma-octalactone], the “W = log (SWF)” value was 0.71.
In the case of `CC(C)=CCC/C(C)=C/C=O` [geranial], the “W = log (SWF)” value is reported as 0.68.
In the case of `CCCCCC=O` [hexanal], the “W = log (SWF)” value is reported as 0.65.
In the case of `CCCCCC(=O)O` [hexanoic acid], the “W = log (SWF)” value is reported as −1.79.
For `C=CC(C)(O)CCC=C(C)C` (stereo not shown) [linalool], the “W = log (SWF)” value was 0.72.
With `CO` [methanol] the “W = log (SWF)” value was −5.93.
In the case of `CCC=O` [propanal], the “W = log (SWF)” value is reported as −1.75.
